Where a name gives a salt, the structure may show the parent alone. Single values of this set are uncertain.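 The cells are immortalized human renal angiomyolipoma cells carrying an empty vector, so TSC2 stays lost. Viability was read by a luminescent ATP assay and normalized to vehicle-treated wells on each plate, in low-serum medium where TSC2-rescued cells do not grow.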
Tested on: 621-102 (TSC2-deficient)
Experiment: relative viability vs DMSO (fraction); higher = less cytotoxic
Details: serum: 0.1% FBS, 72 h

C[C@H]1COC2=C1C(=O)C(=O)c1c2ccc2c1CCCC2(C)C [Cryptotanshinone] gave a relative viability (0.0128 nM) of 1.27, a relative viability (0.064 nM) of 1.46 and a relative viability (0.32 nM) of 1.61. It also gave a relative viability (1.6 nM) of 1.52, a relative viability (8 nM) of 1.13 and a relative viability (40 nM) of 0.861. The relative viability (200 nM) was 0.968, the relative viability (1000 nM) was 0.556 and the relative viability (5000 nM) was 0.0523.
For CC1=C2C[C@H]3[C@@H](CC=C4C[C@@H](O)CC[C@@]43C)[C@@H]2CC[C@]12O[C@@H]1C[C@H](C)CN[C@H]1[C@H]2C [Cyclopamine], the relative viability (0.0128 nM) was 0.791, the relative viability (0.064 nM) was 0.768 and the relative viability (0.32 nM) was 0.694. The relative viability (1.6 nM) was 0.709, the relative viability (8 nM) was 0.766 and the relative viability (40 nM) was 0.693. The relative viability (200 nM) was 0.666, the relative viability (1000 nM) was 0.658 and the relative viability (5000 nM) was 0.517.
For N#CCNC(=O)c1ccc(-c2ccnc(Nc3ccc(N4CCOCC4)cc3)n2)cc1 [Cyt387], the relative viability (0.0128 nM) was 0.782, the relative viability (0.064 nM) was 0.773 and the relative viability (0.32 nM) was 0.743. It also gave a relative viability (1.6 nM) of 0.782, a relative viability (8 nM) of 0.678 and a relative viability (40 nM) of 0.587. The relative viability (200 nM) was 0.556, the relative viability (1000 nM) was 0.455 and the relative viability (5000 nM) was 0.0659.
In the case of C[C@H](NC(=O)Cc1cc(F)cc(F)c1)C(=O)N[C@H](C(=O)OC(C)(C)C)c1ccccc1 [DAPT (GSI-IX)], the relative viability (0.0128 nM) is reported as 0.616, the relative viability (0.064 nM) is reported as 0.607 and the relative viability (0.32 nM) is reported as 0.671. It also gave a relative viability (1.6 nM) of 0.656, a relative viability (8 nM) of 0.513 and a relative viability (40 nM) of 0.421. The relative viability (200 nM) was 0.412, the relative viability (1000 nM) was 0.432 and the relative viability (5000 nM) was 0.6.
Compound CNC(=O)c1cc(Oc2ccc(NC(=O)Nc3cc(C(C)(C)C)nn3-c3ccc4ncccc4c3)c(F)c2)ccn1 [DCC-2036] has a relative viability (0.0128 nM) of 0.669, a relative viability (0.064 nM) of 0.791 and a relative viability (0.32 nM) of 0.74. For the same compound, the relative viability (1.6 nM) was 0.696, the relative viability (8 nM) was 0.677 and the relative viability (40 nM) was 0.451. It also gave a relative viability (200 nM) of 0.283, a relative viability (1000 nM) of 0.231 and a relative viability (5000 nM) of 0.00893.
For CC(C)(C)OC(=O)N[C@H]1CCCCC/C=C\[C@@H]2C[C@@]2(C(=O)NS(=O)(=O)C2CC2)NC(=O)[C@@H]2C[C@@H](OC(=O)N3Cc4cccc(F)c4C3)CN2C1=O [Danoprevir(ITMN-191)], the relative viability (0.0128 nM) was 0.447, the relative viability (0.064 nM) was 0.709 and the relative viability (0.32 nM) was 0.647. The relative viability (1.6 nM) was 0.744, the relative viability (8 nM) was 0.804 and the relative viability (40 nM) was 0.73. The relative viability (200 nM) was 0.776, the relative viability (1000 nM) was 0.832 and the relative viability (5000 nM) was 0.825.
With Cc1nc(Nc2ncc(C(=O)Nc3c(C)cccc3Cl)s2)cc(N2CCN(CCO)CC2)n1 [Dasatinib] the relative viability (0.0128 nM) was 0.908, the relative viability (0.064 nM) was 0.984 and the relative viability (0.32 nM) was 0.784. For the same compound, the relative viability (1.6 nM) was 0.745, the relative viability (8 nM) was 0.781 and the relative viability (40 nM) was 0.636. For the same compound, the relative viability (200 nM) was 0.573, the relative viability (1000 nM) was 0.439 and the relative viability (5000 nM) was 0.337.
Nc1ncn([C@H]2C[C@H](O)[C@@H](CO)O2)c(=O)n1 [Decitabine] gave a relative viability (0.0128 nM) of 0.79, a relative viability (0.064 nM) of 0.809 and a relative viability (0.32 nM) of 0.773. The relative viability (1.6 nM) was 0.841, the relative viability (8 nM) was 0.639 and the relative viability (40 nM) was 0.404. The relative viability (200 nM) was 0.206, the relative viability (1000 nM) was 0.0717 and the relative viability (5000 nM) was 0.0455.
CO[C@H]1C[C@@H]2CC[C@@H](C)[C@@](O)(O2)C(=O)C(=O)N2CCCC[C@H]2C(=O)O[C@H]([C@H](C)C[C@@H]2CC[C@@H](OP(C)(C)=O)[C@H](OC)C2)CC(=O)[C@H](C)/C=C(\C)[C@@H](O)[C@@H](OC)C(=O)[C@H](C)C[C@H](C)/C=C/C=C/C=C/1C [Deforolimus(MK-8669)] gave a relative viability (0.0128 nM) of 0.841, a relative viability (0.064 nM) of 0.904 and a relative viability (0.32 nM) of 0.813. The relative viability (1.6 nM) was 0.626, the relative viability (8 nM) was 0.537 and the relative viability (40 nM) was 0.435. It also gave a relative viability (200 nM) of 0.242, a relative viability (1000 nM) of 0.178 and a relative viability (5000 nM) of 0.168.
C[C@]12CC[C@H](O)CC1=CC[C@@H]1[C@@H]2CC[C@]2(C)C(=O)CC[C@@H]12 [Dehydroepiandrosterone] showed a relative viability (0.0128 nM) of 0.75, a relative viability (0.064 nM) of 0.762 and a relative viability (0.32 nM) of 0.814. It also gave a relative viability (1.6 nM) of 0.376, a relative viability (8 nM) of 0.854 and a relative viability (40 nM) of 0.84. The relative viability (200 nM) was 0.827, the relative viability (1000 nM) was 0.328 and the relative viability (5000 nM) was 0.281.
For O=C(O)Cc1ccccc1Nc1c(Cl)cccc1Cl [Diclofenac Sodium], the relative viability (0.0128 nM) was 0.777, the relative viability (0.064 nM) was 0.669 and the relative viability (0.32 nM) was 0.66. It also gave a relative viability (1.6 nM) of 0.692, a relative viability (8 nM) of 0.645 and a relative viability (40 nM) of 0.596. The relative viability (200 nM) was 0.609, the relative viability (1000 nM) was 0.51 and the relative viability (5000 nM) was 0.55.
In the case of CN(C)CCOC(c1ccccc1)c1ccccc1 [Diphenhydramine HCl], the relative viability (0.0128 nM) is reported as 1.22, the relative viability (0.064 nM) is reported as 1.37 and the relative viability (0.32 nM) is reported as 1.36. It also gave a relative viability (1.6 nM) of 1.51, a relative viability (8 nM) of 0.935 and a relative viability (40 nM) of 0.776. For the same compound, the relative viability (200 nM) was 0.89, the relative viability (1000 nM) was 1.09 and the relative viability (5000 nM) was 0.554.
OCCN(CCO)c1nc(N2CCCCC2)c2nc(N(CCO)CCO)nc(N3CCCCC3)c2n1 [Dipyridamole] was tested, and the relative viability (0.0128 nM) was 1.24, the relative viability (0.064 nM) was 1.5 and the relative viability (0.32 nM) was 1.48. For the same compound, the relative viability (1.6 nM) was 1.25, the relative viability (8 nM) was 0.687 and the relative viability (40 nM) was 0.934. It also gave a relative viability (200 nM) of 1.17, a relative viability (1000 nM) of 1.36 and a relative viability (5000 nM) of 0.607.
With CC(=O)O[C@@]12CO[C@@H]1C[C@H](O)[C@@]1(C)C(=O)[C@H](O)C3=C(C)[C@@H](OC(=O)[C@H](O)[C@@H](NC(=O)OC(C)(C)C)c4ccccc4)C[C@@](O)([C@@H](OC(=O)c4ccccc4)[C@H]21)C3(C)C [Docetaxel] the relative viability (0.0128 nM) was 0.895, the relative viability (0.064 nM) was 0.767 and the relative viability (0.32 nM) was 0.274. The relative viability (1.6 nM) was 0.0189, the relative viability (8 nM) was 0.0151 and the relative viability (40 nM) was 0.0112. The relative viability (200 nM) was 0.0147, the relative viability (1000 nM) was 0.0117 and the relative viability (5000 nM) was 0.0157.
In the case of O=c1[nH]c2ccccc2n1CCCN1CCC(n2c(=O)[nH]c3cc(Cl)ccc32)CC1 [Domperidone], the relative viability (0.0128 nM) is reported as 0.786, the relative viability (0.064 nM) is reported as 0.533 and the relative viability (0.32 nM) is reported as 0.461. The relative viability (1.6 nM) was 0.519, the relative viability (8 nM) was 0.346 and the relative viability (40 nM) was 0.382. The relative viability (200 nM) was 0.264, the relative viability (1000 nM) was 0.289 and the relative viability (5000 nM) was 0.344.
Work on COc1cc2c(cc1OC)C(=O)C(CC1CCN(Cc3ccccc3)CC1)C2 (centres undefined) [Donepezil HCl] yielded a relative viability (0.0128 nM) of 0.722, a relative viability (0.064 nM) of 0.78 and a relative viability (0.32 nM) of 0.747. It also gave a relative viability (1.6 nM) of 0.721, a relative viability (8 nM) of 0.702 and a relative viability (40 nM) of 0.738. For the same compound, the relative viability (200 nM) was 0.78, the relative viability (1000 nM) was 0.767 and the relative viability (5000 nM) was 0.667.

— the supplement of paper PMC8960247
